The text below walks through data of patent publication US20160031905A1, “Macrocyclic LRRK2 Kinase Inhibitors” (IPSEN PHARMA S.A.S., priority 2013, published 2016).

Protein sequences, listed by entry. Tags and fused reporters are not part of them.
UniProt Q5S007, whole entry: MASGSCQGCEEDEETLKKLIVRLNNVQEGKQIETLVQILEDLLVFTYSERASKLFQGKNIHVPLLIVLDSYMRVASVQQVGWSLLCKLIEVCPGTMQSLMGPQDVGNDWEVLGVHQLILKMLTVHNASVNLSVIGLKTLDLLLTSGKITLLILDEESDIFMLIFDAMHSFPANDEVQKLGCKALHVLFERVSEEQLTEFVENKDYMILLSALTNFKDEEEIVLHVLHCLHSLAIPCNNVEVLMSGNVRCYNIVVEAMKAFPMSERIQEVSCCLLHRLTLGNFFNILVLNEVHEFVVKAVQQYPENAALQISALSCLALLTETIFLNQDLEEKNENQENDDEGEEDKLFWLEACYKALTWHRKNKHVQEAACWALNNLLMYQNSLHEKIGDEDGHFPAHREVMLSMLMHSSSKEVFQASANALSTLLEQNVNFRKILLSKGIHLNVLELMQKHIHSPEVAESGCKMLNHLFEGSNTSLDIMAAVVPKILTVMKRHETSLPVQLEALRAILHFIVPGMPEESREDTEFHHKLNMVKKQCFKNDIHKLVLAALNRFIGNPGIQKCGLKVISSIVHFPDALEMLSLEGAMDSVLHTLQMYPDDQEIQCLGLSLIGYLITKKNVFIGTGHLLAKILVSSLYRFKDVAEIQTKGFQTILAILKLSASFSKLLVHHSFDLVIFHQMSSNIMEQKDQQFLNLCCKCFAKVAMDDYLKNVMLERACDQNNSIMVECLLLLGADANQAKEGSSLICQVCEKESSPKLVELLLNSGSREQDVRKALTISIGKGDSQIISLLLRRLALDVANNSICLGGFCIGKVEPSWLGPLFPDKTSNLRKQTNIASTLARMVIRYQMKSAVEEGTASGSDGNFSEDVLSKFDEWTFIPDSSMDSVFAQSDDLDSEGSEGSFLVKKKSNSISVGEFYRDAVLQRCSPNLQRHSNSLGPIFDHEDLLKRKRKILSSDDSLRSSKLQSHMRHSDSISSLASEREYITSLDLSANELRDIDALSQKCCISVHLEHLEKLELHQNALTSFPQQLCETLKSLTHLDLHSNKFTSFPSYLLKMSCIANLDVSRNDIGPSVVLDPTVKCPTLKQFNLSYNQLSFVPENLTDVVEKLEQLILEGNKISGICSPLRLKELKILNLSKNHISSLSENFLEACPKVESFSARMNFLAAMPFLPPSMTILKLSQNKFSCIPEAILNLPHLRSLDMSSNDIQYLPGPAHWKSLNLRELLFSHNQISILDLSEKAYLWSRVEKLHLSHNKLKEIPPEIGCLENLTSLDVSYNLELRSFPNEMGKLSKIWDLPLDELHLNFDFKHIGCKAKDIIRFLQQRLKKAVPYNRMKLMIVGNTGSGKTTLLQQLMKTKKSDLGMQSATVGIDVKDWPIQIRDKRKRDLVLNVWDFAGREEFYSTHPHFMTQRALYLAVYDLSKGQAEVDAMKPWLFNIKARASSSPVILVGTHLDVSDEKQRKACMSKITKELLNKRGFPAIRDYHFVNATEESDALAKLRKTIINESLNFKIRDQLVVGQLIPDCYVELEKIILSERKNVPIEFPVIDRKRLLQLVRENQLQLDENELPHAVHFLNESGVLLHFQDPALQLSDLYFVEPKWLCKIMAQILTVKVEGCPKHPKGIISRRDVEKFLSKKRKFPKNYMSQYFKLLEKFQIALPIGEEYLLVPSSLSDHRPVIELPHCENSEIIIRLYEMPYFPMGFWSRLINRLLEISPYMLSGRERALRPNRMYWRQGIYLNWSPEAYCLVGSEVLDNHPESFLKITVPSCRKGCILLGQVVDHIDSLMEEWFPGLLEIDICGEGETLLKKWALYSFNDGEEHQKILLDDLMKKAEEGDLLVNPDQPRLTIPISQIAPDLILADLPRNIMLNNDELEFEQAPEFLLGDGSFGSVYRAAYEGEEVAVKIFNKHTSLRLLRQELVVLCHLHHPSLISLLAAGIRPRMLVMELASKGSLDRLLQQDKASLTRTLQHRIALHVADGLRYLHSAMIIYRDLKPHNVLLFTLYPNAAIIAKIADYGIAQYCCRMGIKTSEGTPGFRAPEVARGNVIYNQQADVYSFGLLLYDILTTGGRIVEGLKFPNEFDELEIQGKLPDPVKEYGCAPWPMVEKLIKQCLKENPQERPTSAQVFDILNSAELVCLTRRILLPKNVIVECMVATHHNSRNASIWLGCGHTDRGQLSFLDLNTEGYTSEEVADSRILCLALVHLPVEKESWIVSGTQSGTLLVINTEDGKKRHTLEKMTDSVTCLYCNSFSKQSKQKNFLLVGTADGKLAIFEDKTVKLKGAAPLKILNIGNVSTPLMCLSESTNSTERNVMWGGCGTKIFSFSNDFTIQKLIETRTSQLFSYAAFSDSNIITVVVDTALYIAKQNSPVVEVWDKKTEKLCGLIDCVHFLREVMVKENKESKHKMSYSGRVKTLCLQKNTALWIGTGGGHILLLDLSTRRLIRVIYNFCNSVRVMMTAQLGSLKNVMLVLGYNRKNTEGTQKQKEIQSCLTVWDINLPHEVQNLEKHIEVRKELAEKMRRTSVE

In this assay the target is LRRK2 recombinant protein (Homo sapiens, UniProt Q5S007). Description: Radiometric protein kinase assay (33PanQinase Activity Assay), in vitro peptide-based kinase assay. As to conditions: read-out: IC50 for LRRK2; protein kinase LRRK2 7.3 nM, ATP 0.3 μM, substrate GSK3(14-27), 30° C. for 60 minutes. On the procedure: The inhibition of LRRK2 kinase was assessed using LRRK2 recombinant protein in an in vitro peptide-based kinase assay.
A radiometric protein kinase assay (^33PanQinase® Activity Assay) is used for measuring the kinase activity. All assays are performed in 96-well FlashPlates™ from Perkin Elmer in a 50 μl reaction volume. The reaction cocktail is […] in 4 steps in the following order: • 10 μl of non-radioactive ATP solution (in H2O) • 25 μl of assay buffer/[γ-^33P]-ATP mixture • 5 μl of test sample in 10% DMSO • 10 μl of enzyme/substrate mixture
The assay for LRRK2 contains 70 mM HEPES-NaOH pH 7.5, 3 mM MgCl2, 3 mM MnCl2, 3 μM Na-orthovanadate, 1.2 mM DTT, 50 μg/ml PEG20000, ATP (0.3 μM), [γ-^33P]-ATP (approx. […] per well), protein kinase LRRK2 (7.3 nM) and substrate (GSK3(14-27), 1.0 μg/50 μl). The kinase is obtained from Invitrogen Corporation.
The reaction cocktails were incubated at 30° C. for 60 minutes. The reaction was stopped with 50 μl of 2% (v/v) H3PO4, plates were aspirated and washed two times with 200 μl 0.9% (w/v) NaCl. Incorporation of ^33Pi (counting of “cpm”) was determined with a microplate scintillation counter.
The compounds are dissolved to 10 mM in DMSO. Where needed, solutions are sonicated in a bath sonicator.

pIC50: −log10 of the molar value. The match of structure and compound is tentative.

For orientation: pIC50 means the negative decadic logarithm of the IC50, by convention in mol/L. In the case of `CN1CCNCCNc2ccc(F)c(c2)-c2cnn3ccc1nc23`, the pIC50 is over 7.00.

`Fc1ccc2cc1-c1cnn3ccc(nc13)NCCNCCCO2`: the pIC50 was over 7.00.
